Results from patent US20160220590A1, “Formulations and Dosage Forms of Oxidized Phospholipids” (Vascular Biogenics Ltd., priority 2011, published 2016).
At least one compound was matched to its structure with a doubt left.

Assays:
[1] = oral, daily dosages of 80 mg VB-201 per day or less; cited from earlier work
[2] = Stability of VB-201 in gelatin capsules (255 mg/gram in Lauroglycol FCC), by sampling unsealed capsules and by extraction of capsules; assay type: physicochemical
Isothermal calorimetry = assay type: physicochemical; conditions: 88 mg VB-201, 25° C., over the first 11 hours; preliminary
[3] = Gravimetric vapor sorption analysis; assay type: physicochemical

CCCCCCCCCCCCCCCCOCC(COP(=O)([O-])OCC[N+](C)(C)C)OCCCCC(=O)O (centres unmarked) [VB-201, 1-hexadecyl-2-(4′-carboxybutyl)-glycero-3-phosphocholine]
efficacy [1]: effective at inhibiting inflammatory processes | Recovery of VB-201 after storage ([2]; 4° C., ambient relative humidity, 10 days, sampling unsealed capsules): 87.7% | Recovery of VB-201 after storage ([2]; 4° C., ambient relative humidity, 16 days, sampling unsealed capsules): 84.7% | Recovery of VB-201 after storage ([2]; 4° C., ambient relative humidity, 24 days, extraction of capsules): 96.7% | Recovery of VB-201 after storage ([2]; 4° C., ambient relative humidity, 59 days, extraction of capsules): 96.8% | Recovery of VB-201 after storage ([2]; 40° C., 75% relative humidity, 10 days, sampling unsealed capsules): 56.3% | Recovery of VB-201 after storage ([2]; 40° C., 75% relative humidity, 16 days, sampling unsealed capsules): 62.6% | Recovery of VB-201 after storage ([2]; 40° C., 75% relative humidity, 24 days, extraction of capsules): 92.1% | Recovery of VB-201 after storage ([2]; 40° C., 75% relative humidity, 59 days, extraction of capsules): 79.6% | loss of VB-201 on storage, assayed by extraction of the capsules ([2]; 59 days at 4° C. with ambient relative humidity or at room temperature with 65% relative humidity): no significant loss | Initial recovery (no storage) ([2]; gelatin capsules, 255 mg/gram VB-201 in Lauroglycol FCC): 96.74% | Recovery of VB-201 after storage ([2]; room temperature, 65% relative humidity, 10 days, sampling unsealed capsules): 87.0% | Recovery of VB-201 after storage ([2]; room temperature, 65% relative humidity, 16 days, sampling unsealed capsules): 91.8% | Recovery of VB-201 after storage ([2]; room temperature, 65% relative humidity, 24 days, extraction of capsules): 90.9% | Recovery of VB-201 after storage ([2]; room temperature, 65% relative humidity, 59 days, extraction of capsules): 99.1% | decrease of VB-201 content of capsules ([2]; stored at 40° C. with 75% relative humidity, extraction of capsules): approximately 20% | endothermic signal (Isothermal calorimetry): approximately −6 μW | hygroscopicity [3]: highly hygroscopic | increase in weight (water uptake) ([3]; relative humidity increased beyond 40%, particularly 40% to 60%): > 30% | increase in weight (water uptake) ([3]; relative humidity increased gradually to 40%): approximately 3.5%
